In article PMC4238977:
These are yes or no findings as the source states them, for the method shown. For some assays here: Binding seen in cells or lysates may run through a third protein. Some results given as binding are weak or reduced against the parent protein; the word gives no strength. Sequences can lack the tags named with a protein. Blank lines part the entries; values can stand above or below the binder they belong to.

Columns and labels:
[1] = target: T1, Bam (yeast 2-hybrid fusion) (Drosophila) (UniProt P22745); experiment: two-hybrid; yeast 2-hybrid; growth on SD/-Ade/-His/-Leu/-Trp with Aureobasidin A and X-alpha-Gal (QDO/X/A); SD/-Leu/-Trp (DDO) as control of transformation
T1 sequence: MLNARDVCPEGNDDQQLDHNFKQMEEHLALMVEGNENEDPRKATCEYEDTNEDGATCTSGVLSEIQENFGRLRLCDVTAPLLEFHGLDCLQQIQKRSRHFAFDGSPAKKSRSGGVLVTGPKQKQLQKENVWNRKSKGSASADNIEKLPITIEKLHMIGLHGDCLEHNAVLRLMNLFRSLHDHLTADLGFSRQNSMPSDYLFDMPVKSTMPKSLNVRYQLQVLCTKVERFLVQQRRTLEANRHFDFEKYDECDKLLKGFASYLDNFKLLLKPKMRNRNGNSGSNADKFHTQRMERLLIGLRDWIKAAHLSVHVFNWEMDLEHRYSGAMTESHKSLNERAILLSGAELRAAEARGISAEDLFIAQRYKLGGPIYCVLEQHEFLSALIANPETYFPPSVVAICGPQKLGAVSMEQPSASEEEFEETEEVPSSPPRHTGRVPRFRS

[2] = target: T2, Bgcn (yeast 2-hybrid fusion) (Drosophila) (UniProt Q9W1I2); experiment: as above
T2 sequence: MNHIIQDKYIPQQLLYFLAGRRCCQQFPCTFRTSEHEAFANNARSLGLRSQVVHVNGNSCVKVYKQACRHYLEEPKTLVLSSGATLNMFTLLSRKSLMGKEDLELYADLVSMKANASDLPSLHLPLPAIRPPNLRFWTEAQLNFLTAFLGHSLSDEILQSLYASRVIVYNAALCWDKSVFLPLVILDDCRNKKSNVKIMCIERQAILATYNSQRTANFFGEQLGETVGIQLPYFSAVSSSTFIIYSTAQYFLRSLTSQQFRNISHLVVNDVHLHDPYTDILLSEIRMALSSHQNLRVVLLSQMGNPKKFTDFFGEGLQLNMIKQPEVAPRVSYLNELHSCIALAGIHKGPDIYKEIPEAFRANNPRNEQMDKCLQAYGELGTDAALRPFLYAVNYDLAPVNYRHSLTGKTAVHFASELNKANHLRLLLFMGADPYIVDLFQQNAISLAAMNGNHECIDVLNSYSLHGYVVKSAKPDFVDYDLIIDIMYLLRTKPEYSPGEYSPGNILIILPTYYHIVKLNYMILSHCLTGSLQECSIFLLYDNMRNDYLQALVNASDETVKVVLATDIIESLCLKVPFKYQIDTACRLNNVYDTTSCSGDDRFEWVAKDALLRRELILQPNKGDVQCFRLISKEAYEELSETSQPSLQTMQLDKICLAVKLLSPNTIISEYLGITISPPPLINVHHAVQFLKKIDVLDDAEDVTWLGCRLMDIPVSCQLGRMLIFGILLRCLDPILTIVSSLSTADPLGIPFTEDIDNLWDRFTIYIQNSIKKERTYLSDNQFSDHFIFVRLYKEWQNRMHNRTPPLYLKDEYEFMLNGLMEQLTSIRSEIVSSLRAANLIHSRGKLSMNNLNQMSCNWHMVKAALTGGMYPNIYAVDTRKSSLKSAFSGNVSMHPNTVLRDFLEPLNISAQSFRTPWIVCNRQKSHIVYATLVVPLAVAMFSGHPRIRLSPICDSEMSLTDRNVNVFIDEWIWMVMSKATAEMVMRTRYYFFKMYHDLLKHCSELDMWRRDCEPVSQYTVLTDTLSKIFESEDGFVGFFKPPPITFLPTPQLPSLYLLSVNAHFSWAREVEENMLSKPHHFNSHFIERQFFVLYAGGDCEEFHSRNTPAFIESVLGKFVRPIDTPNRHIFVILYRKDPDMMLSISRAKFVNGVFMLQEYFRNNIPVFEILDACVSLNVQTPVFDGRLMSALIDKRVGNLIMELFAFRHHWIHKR

[3] = target: T3, Fragment containing N-terminal 100 amino acids of Bam, fused with BD (Drosophila) (UniProt P22745); experiment: as above
T3 sequence: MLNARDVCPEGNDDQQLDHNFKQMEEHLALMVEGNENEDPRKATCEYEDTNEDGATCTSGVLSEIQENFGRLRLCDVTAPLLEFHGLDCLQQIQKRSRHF

[4] = target: T4, Bam N-terminal fragment (Flag- or HA-tagged, S2 cells, Figure 5C-F) (Drosophila) (UniProt P22745); experiment: co-IP; S2 cells transfected with Flag- or HA-tagged constructs; lysates immunoprecipitated with anti-HA beads; Western blot
T4 sequence: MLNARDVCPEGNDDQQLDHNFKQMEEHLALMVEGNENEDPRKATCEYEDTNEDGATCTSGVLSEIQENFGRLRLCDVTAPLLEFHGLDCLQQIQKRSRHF

Flag-Bam (Drosophila) = target: T5, Flag-Bam (Drosophila) (UniProt P22745); experiment: co-IP; S2 cells over-expressing Flag-Bam and Myc-Tut; lysates immunoprecipitated with anti-Myc or anti-Flag beads, 4 h at 4°C, Western blot
T5 sequence: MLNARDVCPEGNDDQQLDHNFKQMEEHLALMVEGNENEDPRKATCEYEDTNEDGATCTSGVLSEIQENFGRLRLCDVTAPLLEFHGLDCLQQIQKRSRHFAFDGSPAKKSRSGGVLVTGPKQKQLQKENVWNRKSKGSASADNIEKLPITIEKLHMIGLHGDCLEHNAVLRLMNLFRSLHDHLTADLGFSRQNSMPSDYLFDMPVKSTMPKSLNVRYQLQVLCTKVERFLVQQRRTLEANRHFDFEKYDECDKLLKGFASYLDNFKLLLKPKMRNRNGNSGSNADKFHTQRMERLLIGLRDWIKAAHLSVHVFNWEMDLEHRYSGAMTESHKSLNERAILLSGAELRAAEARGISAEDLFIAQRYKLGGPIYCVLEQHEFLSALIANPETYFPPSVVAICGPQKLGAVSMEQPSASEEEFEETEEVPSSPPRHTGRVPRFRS

binding [1]: binds
binding [2]: no binding
binding [3]: binds
B1: AD-Tut (protein, UniProt Q8IQA2 1-230)
chain: MDFESKYCTSQVNGTITITTRKVLDENLKSLLDEGKGELFLSCIPRNHSCSPRWIVEVASELGEVYIMRYKIDFSGNSRGYAYLQYINVDLKESAMQYLPMRFRQLCMCLRVEPSTNNRELVLKNVESSLRPWQVYQEMLKIHPFTIVRVYEYQLDQFFYIFEYRNNDSAASAHQRVRNSIRKFGEHAHISWLTAENILSRASGSFCFQREVSQNRTRRVPPRQKGCFKF

binding [4]: binds
B2: Tut (Flag- or HA-tagged, S2 cells, Figure 5C-F) (protein, UniProt Q8IQA2 1-230)
chain: MDFESKYCTSQVNGTITITTRKVLDENLKSLLDEGKGELFLSCIPRNHSCSPRWIVEVASELGEVYIMRYKIDFSGNSRGYAYLQYINVDLKESAMQYLPMRFRQLCMCLRVEPSTNNRELVLKNVESSLRPWQVYQEMLKIHPFTIVRVYEYQLDQFFYIFEYRNNDSAASAHQRVRNSIRKFGEHAHISWLTAENILSRASGSFCFQREVSQNRTRRVPPRQKGCFKF

binding (Flag-Bam (Drosophila)): binds
B3: Myc-Tut (protein, UniProt Q8IQA2 1-230)
chain: MDFESKYCTSQVNGTITITTRKVLDENLKSLLDEGKGELFLSCIPRNHSCSPRWIVEVASELGEVYIMRYKIDFSGNSRGYAYLQYINVDLKESAMQYLPMRFRQLCMCLRVEPSTNNRELVLKNVESSLRPWQVYQEMLKIHPFTIVRVYEYQLDQFFYIFEYRNNDSAASAHQRVRNSIRKFGEHAHISWLTAENILSRASGSFCFQREVSQNRTRRVPPRQKGCFKF
